Data taken from the supplement of paper PMC7666118.
Some of the results follow.

Chains of the proteins cited; added tags and fusions are not shown. Lines headed by an entry give the natural chain unless they say otherwise; changes in a name come on top.
UniProt O75928, whole entry: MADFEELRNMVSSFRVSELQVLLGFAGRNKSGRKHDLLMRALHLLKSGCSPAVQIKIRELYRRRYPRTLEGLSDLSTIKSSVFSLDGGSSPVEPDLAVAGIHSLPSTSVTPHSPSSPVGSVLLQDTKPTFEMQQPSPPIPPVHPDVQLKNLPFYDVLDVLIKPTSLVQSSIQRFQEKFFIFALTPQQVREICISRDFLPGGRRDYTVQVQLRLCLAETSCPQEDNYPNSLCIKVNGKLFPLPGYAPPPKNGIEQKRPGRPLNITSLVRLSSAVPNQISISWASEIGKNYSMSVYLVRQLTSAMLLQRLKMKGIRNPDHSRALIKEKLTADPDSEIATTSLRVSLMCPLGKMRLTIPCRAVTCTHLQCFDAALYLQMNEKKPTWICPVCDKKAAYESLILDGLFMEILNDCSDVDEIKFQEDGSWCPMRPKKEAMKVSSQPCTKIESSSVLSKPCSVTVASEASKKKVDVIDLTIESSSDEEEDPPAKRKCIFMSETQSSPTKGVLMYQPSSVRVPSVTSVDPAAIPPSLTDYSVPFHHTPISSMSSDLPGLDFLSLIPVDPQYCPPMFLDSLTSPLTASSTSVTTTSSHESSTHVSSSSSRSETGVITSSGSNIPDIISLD
UniProt P08559, whole entry: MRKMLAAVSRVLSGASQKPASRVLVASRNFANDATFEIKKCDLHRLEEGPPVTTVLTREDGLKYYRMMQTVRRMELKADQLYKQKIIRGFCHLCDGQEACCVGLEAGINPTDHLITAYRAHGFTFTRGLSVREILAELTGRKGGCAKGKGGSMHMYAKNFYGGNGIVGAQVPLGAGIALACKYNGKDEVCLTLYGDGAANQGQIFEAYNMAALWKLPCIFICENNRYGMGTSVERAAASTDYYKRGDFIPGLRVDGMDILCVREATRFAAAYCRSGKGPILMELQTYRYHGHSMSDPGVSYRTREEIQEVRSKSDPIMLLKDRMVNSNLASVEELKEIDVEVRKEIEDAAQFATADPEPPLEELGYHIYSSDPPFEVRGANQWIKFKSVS
UniProt Q15149: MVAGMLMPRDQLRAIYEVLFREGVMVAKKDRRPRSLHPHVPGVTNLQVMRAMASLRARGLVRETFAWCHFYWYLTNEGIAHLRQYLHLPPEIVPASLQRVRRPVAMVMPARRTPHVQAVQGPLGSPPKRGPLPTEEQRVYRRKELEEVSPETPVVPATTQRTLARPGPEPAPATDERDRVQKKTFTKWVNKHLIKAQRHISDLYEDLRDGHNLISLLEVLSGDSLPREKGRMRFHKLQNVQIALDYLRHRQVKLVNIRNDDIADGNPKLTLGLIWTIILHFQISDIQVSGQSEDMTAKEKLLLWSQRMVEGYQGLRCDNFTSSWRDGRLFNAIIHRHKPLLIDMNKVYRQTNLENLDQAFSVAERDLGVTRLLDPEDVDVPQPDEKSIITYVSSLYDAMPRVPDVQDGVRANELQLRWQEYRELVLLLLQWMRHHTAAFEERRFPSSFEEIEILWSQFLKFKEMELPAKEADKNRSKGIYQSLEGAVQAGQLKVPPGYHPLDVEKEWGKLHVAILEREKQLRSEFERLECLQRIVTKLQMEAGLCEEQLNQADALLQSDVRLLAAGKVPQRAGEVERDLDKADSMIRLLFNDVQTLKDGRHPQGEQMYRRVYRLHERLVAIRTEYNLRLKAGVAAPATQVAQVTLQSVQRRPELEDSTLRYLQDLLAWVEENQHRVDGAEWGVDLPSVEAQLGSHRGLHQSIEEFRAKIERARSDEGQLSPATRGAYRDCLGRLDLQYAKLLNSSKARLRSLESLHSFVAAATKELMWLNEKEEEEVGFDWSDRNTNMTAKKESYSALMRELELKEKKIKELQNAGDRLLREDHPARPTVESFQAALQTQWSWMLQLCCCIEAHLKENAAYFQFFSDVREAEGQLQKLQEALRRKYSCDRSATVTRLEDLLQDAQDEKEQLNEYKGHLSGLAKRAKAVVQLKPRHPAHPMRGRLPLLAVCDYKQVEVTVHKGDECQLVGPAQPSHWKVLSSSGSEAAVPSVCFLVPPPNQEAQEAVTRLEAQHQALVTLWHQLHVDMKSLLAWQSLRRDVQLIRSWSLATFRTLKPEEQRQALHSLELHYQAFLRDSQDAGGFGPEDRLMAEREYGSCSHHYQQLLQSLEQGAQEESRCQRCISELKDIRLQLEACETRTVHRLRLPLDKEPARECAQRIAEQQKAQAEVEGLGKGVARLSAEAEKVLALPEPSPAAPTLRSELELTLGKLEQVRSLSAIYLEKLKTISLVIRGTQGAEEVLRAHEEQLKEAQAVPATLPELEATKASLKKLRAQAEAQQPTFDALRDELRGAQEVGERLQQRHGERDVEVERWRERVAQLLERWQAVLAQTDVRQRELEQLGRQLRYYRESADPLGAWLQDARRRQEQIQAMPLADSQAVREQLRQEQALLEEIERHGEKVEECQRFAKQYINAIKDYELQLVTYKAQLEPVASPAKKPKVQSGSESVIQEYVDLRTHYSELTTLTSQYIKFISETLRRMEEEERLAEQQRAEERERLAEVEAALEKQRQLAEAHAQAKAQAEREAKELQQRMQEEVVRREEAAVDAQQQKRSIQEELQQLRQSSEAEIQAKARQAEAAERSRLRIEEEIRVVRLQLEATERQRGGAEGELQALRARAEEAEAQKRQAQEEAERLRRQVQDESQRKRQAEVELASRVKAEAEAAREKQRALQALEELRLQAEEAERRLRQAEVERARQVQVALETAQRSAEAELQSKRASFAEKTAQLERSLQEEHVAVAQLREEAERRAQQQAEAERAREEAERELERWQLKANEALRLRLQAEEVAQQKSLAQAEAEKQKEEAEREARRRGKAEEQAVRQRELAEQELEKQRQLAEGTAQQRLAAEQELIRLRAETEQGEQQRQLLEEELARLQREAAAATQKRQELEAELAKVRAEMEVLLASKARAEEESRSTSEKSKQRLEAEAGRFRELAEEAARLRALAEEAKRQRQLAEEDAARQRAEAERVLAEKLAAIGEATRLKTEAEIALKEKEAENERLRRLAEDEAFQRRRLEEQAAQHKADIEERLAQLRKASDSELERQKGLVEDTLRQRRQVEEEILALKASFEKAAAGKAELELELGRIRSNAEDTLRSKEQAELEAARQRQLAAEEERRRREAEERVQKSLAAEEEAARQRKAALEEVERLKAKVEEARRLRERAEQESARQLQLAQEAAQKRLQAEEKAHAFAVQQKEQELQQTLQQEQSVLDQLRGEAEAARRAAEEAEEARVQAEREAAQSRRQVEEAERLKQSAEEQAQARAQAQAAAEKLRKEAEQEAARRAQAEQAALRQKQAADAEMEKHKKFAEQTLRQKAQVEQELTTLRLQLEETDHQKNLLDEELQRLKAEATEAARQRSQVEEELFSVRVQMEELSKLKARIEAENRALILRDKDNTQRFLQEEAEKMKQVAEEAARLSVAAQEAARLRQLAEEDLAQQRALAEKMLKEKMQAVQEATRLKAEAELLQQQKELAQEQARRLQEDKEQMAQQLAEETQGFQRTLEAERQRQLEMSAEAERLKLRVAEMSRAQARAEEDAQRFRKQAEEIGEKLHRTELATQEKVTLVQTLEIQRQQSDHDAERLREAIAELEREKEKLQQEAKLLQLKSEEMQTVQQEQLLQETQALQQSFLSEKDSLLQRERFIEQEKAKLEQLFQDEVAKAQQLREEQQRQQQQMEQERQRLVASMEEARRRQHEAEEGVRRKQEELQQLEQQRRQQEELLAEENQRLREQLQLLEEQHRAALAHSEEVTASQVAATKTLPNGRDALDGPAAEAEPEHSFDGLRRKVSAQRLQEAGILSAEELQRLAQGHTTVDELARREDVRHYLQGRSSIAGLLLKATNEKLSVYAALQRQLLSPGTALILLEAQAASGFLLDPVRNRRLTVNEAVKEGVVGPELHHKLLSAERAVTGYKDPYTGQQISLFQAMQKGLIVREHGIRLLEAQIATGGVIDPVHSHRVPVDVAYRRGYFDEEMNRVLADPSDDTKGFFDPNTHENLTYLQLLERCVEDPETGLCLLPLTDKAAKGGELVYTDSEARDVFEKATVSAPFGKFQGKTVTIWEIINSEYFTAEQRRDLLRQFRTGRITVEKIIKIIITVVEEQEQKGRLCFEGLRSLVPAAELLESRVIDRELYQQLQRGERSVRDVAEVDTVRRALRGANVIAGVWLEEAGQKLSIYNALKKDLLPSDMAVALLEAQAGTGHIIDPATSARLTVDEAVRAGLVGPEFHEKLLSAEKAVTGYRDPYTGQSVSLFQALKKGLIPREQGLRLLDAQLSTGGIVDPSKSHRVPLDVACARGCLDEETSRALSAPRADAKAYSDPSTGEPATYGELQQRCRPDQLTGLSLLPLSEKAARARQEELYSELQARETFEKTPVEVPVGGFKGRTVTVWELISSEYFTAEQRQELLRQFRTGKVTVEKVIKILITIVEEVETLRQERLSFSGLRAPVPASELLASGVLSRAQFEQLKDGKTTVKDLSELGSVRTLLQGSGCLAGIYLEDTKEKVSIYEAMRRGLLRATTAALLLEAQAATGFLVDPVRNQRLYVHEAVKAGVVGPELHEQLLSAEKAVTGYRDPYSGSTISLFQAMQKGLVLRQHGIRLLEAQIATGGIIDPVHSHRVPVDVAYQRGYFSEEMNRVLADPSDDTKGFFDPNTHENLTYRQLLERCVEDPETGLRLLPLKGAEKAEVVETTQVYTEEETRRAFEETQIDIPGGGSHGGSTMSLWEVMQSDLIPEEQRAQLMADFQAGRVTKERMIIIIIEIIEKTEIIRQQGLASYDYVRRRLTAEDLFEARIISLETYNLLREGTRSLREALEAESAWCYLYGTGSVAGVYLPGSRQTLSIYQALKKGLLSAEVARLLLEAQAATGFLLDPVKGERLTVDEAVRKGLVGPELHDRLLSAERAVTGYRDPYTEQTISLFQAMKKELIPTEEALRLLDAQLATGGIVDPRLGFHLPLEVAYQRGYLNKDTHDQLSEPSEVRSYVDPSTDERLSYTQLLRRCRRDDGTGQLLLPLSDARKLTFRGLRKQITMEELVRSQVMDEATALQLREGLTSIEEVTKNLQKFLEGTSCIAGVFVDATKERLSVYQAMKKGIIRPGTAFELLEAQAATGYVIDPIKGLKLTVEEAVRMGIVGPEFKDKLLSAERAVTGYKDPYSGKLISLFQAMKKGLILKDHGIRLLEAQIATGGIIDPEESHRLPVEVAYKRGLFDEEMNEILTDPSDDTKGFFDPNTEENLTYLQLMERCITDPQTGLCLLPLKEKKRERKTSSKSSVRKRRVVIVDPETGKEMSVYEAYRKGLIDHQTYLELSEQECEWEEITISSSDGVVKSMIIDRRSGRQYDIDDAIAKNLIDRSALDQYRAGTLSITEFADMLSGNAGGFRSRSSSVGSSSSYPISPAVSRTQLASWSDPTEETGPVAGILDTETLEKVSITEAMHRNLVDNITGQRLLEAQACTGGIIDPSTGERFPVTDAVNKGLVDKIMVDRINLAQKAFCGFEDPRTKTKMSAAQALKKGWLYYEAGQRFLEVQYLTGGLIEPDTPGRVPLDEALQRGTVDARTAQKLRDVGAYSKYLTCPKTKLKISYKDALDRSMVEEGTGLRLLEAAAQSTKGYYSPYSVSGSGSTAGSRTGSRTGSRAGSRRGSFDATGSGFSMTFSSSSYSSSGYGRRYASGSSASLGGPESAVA
UniProt P13674: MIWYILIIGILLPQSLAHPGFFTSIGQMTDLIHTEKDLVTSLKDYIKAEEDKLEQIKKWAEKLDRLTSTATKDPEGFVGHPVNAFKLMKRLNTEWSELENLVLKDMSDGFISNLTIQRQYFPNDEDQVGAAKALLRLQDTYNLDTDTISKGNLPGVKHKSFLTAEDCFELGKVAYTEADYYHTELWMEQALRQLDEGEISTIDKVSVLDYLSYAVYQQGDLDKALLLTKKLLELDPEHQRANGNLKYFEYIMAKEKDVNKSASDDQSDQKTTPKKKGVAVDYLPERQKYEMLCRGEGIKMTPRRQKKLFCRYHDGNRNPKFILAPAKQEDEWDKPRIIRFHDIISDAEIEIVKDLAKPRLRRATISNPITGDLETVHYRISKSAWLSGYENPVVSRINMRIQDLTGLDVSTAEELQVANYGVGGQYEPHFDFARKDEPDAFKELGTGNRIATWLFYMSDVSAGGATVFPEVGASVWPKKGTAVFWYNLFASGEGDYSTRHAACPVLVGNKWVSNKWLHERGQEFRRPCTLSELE
UniProt O00264: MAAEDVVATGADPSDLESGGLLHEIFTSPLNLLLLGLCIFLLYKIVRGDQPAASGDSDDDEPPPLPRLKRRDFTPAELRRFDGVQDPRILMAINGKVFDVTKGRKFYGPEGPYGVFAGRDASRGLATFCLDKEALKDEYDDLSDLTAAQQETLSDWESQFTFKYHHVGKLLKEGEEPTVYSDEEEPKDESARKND

The targets below were run with COc1ccc(Cn2ccc3cc(C)c(C(=O)NO)cc32)cc1 (assay: dose-dependent thermal stabilisation call (2D-TPP, DLPTP, 10% FDR) (binary (1 = stabilised)); higher = stabilised by the compound). Conditions: system: HL-60 intact cells; concentration range 0.04-10 µM.
Method: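 2D thermal proteome profiling in intact HL-60 cells treated with BRD-3811 (0, 0.04, 0.29, 2, 10 uM) for 90 min at 37 C, then heated 3 min at one of 12 temperatures (42-63.9 C). Soluble protein was quantified by TMT10 MS. The value is the DLPTP call of the paper: dose-dependent thermal stabilisation over all temperatures at 10% FDR (F-test of a dose-response against a flat model); one experiment, one call per tested protein.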

Row | Target | dose-dependent thermal stabilisation call
1 | PARD3 (UniProt Q8TEW0) | inactive: 0
2 | PDCD2L (UniProt Q9BRP1) | inactive: 0
3 | PHF19 (UniProt Q5T6S3) | inactive: 0
4 | PCF11 (UniProt O94913) | inactive: 0
5 | PIAS2 (UniProt O75928) | inactive: 0
6 | PGK1 (UniProt P00558) | inactive: 0
7 | PIH1D1 (UniProt Q9NWS0) | inactive: 0
8 | OXCT1 (UniProt P55809) | inactive: 0
9 | P4HTM (UniProt Q9NXG6) | inactive: 0
10 | PHKG2 (UniProt P15735) | inactive: 0
11 | OSBPL5 (UniProt Q9H0X9) | inactive: 0
12 | PDIA3 (UniProt P30101) | inactive: 0
13 | PDK3 (UniProt Q15120) | inactive: 0
14 | PLRG1 (UniProt O43660) | inactive: 0
15 | PDHA1 (UniProt P08559) | inactive: 0
16 | PACSIN3 (UniProt Q9UKS6) | inactive: 0
17 | PIGN (UniProt O95427) | inactive: 0
18 | PLSCR1 (UniProt O15162) | inactive: 0
19 | PHF10 (UniProt Q8WUB8) | inactive: 0
20 | PDSS2 (UniProt Q86YH6) | inactive: 0

3 entries drawn at random from those above, as already listed:
Row | Target | dose-dependent thermal stabilisation call
2 | PDCD2L (UniProt Q9BRP1) | inactive: 0
6 | PGK1 (UniProt P00558) | inactive: 0
17 | PIGN (UniProt O95427) | inactive: 0

The list goes on.

Row | Target | dose-dependent thermal stabilisation call
21 | PGAM1 (UniProt P18669) | inactive: 0
22 | PBRM1 (UniProt Q86U86) | inactive: 0
23 | PIP3AP (UniProt Q9C0I1) | inactive: 0
24 | PLEC1 (UniProt Q15149) | inactive: 0
25 | OXNAD1 (UniProt Q96HP4) | inactive: 0
26 | PIK3CB (UniProt P42338) | inactive: 0
27 | PCYT1A (UniProt P49585) | inactive: 0
28 | PLEKHO2 (UniProt Q8TD55) | inactive: 0
29 | PIGG (UniProt Q5H8A4) | inactive: 0
30 | PACS1 (UniProt Q6VY07) | inactive: 0
31 | PHF3 (UniProt Q92576) | inactive: 0
32 | PIK3C3 (UniProt Q8NEB9) | inactive: 0
33 | PAPD4 (UniProt Q6PIY7) | inactive: 0
34 | P4HA1 (UniProt P13674) | inactive: 0
35 | PKN1 (UniProt Q16512) | inactive: 0
36 | PDCD11 (UniProt Q14690) | inactive: 0
37 | PARD6B (UniProt Q9BYG5) | inactive: 0
38 | PEPD (UniProt P12955) | inactive: 0
39 | PHF14 (UniProt O94880) | inactive: 0
40 | PGRMC1 (UniProt O00264) | inactive: 0
